According to patent US20220074941A1, “HSP90 COMBINATION THERAPY” (Sloan-Kettering Institute for Cancer Research, priority 2011, published 2022):

Tests used:
[1] = test system: Hsp90 complexes in Mia-PaCa-2 cell extract; experiment: Nano-LC-MS/MS of PU-beads pull-downs; assay type: binding, human; conditions: protein identified in PU-beads pull-down of Mia-Paca 2 extract; QSTAR-Elite QTof MS
How it was run: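 They came from PU-bead pull-downs of pre-cleared lysates (control beads, overnight, 4 °C), eluted by boiling in 2% SDS, gel-separated and run by data-dependent nano-ESI QTof MS/MS.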

[2] = test system: Hsp90 complexes in K562 cell extract; experiment: Nano-LC-MS/MS of PU-beads pull-downs; assay type: binding; conditions: protein identified in PU-beads pull-down of K562 extract, QSTAR-Elite QTof MS
How it was run: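 Proteins were identified by data-dependent nano LC-MS/MS (QTof, ESI) and Mascot searching (p<0.05), then reported as spectral counts and coverage via Scaffold. Inputs were PU-bead versus control-bead pull-downs from lysate pre-cleared with control beads overnight at 4 °C, eluted by boiling in 2% SDS.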

B1: PPP6R1 (protein, UniProt Q9UPN7 1-881, looked up)
Serine/threonine-protein …: MFWKFDLHTSSHLDTLLEREDLSLPELLDEEDVLQECKVVNRKLLDFLLQPPHLQAMVAWVTQEPPDSGEERLRYKYPSVACEILTSDVPQINDALGADESLLNRLYGFLQSTGSLNPLLASFFSKVMGILINRKTDQLVSFLRKKDDFVDLLLQHIGTSAIMDLLLRLLTCVERPQLRQDVVNWLNEEKIVQRLIEQIHPSKDENQHSNASQSLCDIIRLSREQMIQVQDSPEPDQLLATLEKQETIEQLLSNMFEGEQSQSVIVSGIQVLLTLLEPRRPRSESVTVNSFFSSVDGQLELLAQGALESTVSSVGALHALRPRLSCFHQLLLEPPKLEPLQMTWGMLAPPLGNTRLHVVKLLASALSANDAALTHELLALDVPNTMLDLFFHYVFNNFLHAQVEGCVSTMLSLGPPPDSSPETPIQNPVVKHLLQQCRLVERILTSWEENDRVQCAGGPRKGYMGHLTRVAGALVQNTEKGPNAEQLRQLLKELPSEQQEQWEAFVSGPLAETNKKNMVDLVNTHHLHSSSDDEDDRLKEFNFPEEAVLQQAFMDFQMQRMTSAFIDHFGFNDEEFGEQEESVNAPFDKTANITFSLNADDENPNANLLEICYKDRIQQFDDDEEEEDEEEAQGSGESDGEDGAWQGSQLARGARLGQPPGVRSGGSTDSEDEEEEDEEEEEDEEGIGCAARGGATPLSYPSPGPQPPGPSWTATFDPVPTDAPTSPRVSGEEELHTGPPAPQGPLSVPQGLPTQSLASPPARDALQLRSQDPTPPSAPQEATEGSKVTEPSAPCQALVSIGDLQATFHGIRSAPSSSDSATRDPSTSVPASGAHQPPQTTEGEKSPEPLGLPQSQSAQALTPPPIPNGSAPEGPASPGSQ
Number of Assigned Spectra, Mia-Paca 2 [1]: 5 | Number of Assigned Spectra, K562 Prep 1 [2]: 5 | Number of Assigned Spectra, K562 Prep 2 [2]: 2

B2: TGFBRAP1 (protein, UniProt Q8WUH2 1-860, looked up)
Transforming growth …: MMSIKAFTLVSAVERELLMGDKERVNIECVECCGRDLYVGTNDCFVYHFLLEERPVPAGPATFTATKQLQRHLGFKKPVNELRAASALNRLLVLCDNSISLVNMLNLEPVPSGARIKGAATFALNENPVSGDPFCVEVCIISVKRRTIQMFLVYEDRVQIVKEVSTAEQPLAVAVDGHFLCLALTTQYIIHNYSTGVSQDLFPYCSEERPPIVKRIGRQEFLLAGPGGLGMFATVAGISQRAPVHWSENVIGAAVSFPYVIALDDEFITVHSMLDQQQKQTLPFKEGHILQDFEGRVIVATSKGVYILVPLPLEKQIQDLLASRRVEEALVLAKGARRNIPKEKFQVMYRRILQQAGFIQFAQLQFLEAKELFRSGQLDVRELISLYPFLLPTSSSFTRSHPPLHEYADLNQLTQGDQEKMAKCKRFLMSYLNEVRSTEVANGYKEDIDTALLKLYAEADHDSLLDLLVTENFCLLTDSAAWLEKHKKYFALGLLYHYNNQDAAAVQLWVNIVNGDVQDSTRSDLYEYIVDFLTYCLDEELVWAYADWVLQKSEEVGVQVFTKRPLDEQQKNSFNPDDIINCLKKYPKALVKYLEHLVIDKRLQKEEYHTHLAVLYLEEVLLQRASASGKGAEATETQAKLRRLLQKSDLYRVHFLLERLQGAGLPMESAILHGKLGEHEKALHILVHELQDFAAAEDYCLWCSEGRDPPHRQQLFHTLLAIYLHAGPTAHELAVAAVDLLNRHATEFDAAQVLQMLPDTWSVQLLCPFLMGAMRDSIHARRTMQVALGLARSENLIYTYDKMKLKGSSIQLSDKKLCQICQNPFCEPVFVRYPNGGLVHTHCAASRHTNPSSSSPGTRT
Number of Assigned Spectra, Mia-Paca 2 [1]: 0 | Number of Assigned Spectra, K562 Prep 1 [2]: 1 | Number of Assigned Spectra, K562 Prep 2 [2]: 0

B3: ACAP2 (protein, UniProt Q15057 1-778, looked up)
Arf-GAP with coiled-coil, ANK …: MKMTVDFEECLKDSPRFRAALEEVEGDVAELELKLDKLVKLCIAMIDTGKAFCVANKQFMNGIRDLAQYSSNDAVVETSLTKFSDSLQEMINFHTILFDQTQRSIKAQLQNFVKEDLRKFKDAKKQFEKVSEEKENALVKNAQVQRNKQHEVEEATNILTATRKCFRHIALDYVLQINVLQSKRRSEILKSMLSFMYAHLAFFHQGYDLFSELGPYMKDLGAQLDRLVVDAAKEKREMEQKHSTIQQKDFSSDDSKLEYNVDAANGIVMEGYLFKRASNAFKTWNRRWFSIQNNQLVYQKKFKDNPTVVVEDLRLCTVKHCEDIERRFCFEVVSPTKSCMLQADSEKLRQAWIKAVQTSIATAYREKGDESEKLDKKSSPSTGSLDSGNESKEKLLKGESALQRVQCIPGNASCCDCGLADPRWASINLGITLCIECSGIHRSLGVHFSKVRSLTLDTWEPELLKLMCELGNDVINRVYEANVEKMGIKKPQPGQRQEKEAYIRAKYVERKFVDKYSISLSPPEQQKKFVSKSSEEKRLSISKFGPGDQVRASAQSSVRSNDSGIQQSSDDGRESLPSTVSANSLYEPEGERQDSSMFLDSKHLNPGLQLYRASYEKNLPKMAEALAHGADVNWANSEENKATPLIQAVLGGSLVTCEFLLQNGANVNQRDVQGRGPLHHATVLGHTGQVCLFLKRGANQHATDEEGKDPLSIAVEAANADIVTLLRLARMNEEMRESEGLYGQPGDETYQDIFRDFSQMASNNPEKLNRFQQDSQKF
Number of Assigned Spectra, Mia-Paca 2 [1]: 1 | Number of Assigned Spectra, K562 Prep 1 [2]: 3 | Number of Assigned Spectra, K562 Prep 2 [2]: 2

B4: GIT1 (protein, UniProt Q9Y2X7 1-761, looked up)
ARF GTPase-activating protein …: MSRKGPRAEVCADCSAPDPGWASISRGVLVCDECCSVHRSLGRHISIVKHLRHSAWPPTLLQMVHTLASNGANSIWEHSLLDPAQVQSGRRKANPQDKVHPIKSEFIRAKYQMLAFVHKLPCRDDDGVTAKDLSKQLHSSVRTGNLETCLRLLSLGAQANFFHPEKGTTPLHVAAKAGQTLQAELLVVYGADPGSPDVNGRTPIDYARQAGHHELAERLVECQYELTDRLAFYLCGRKPDHKNGHYIIPQMADSLDLSELAKAAKKKLQALSNRLFEELAMDVYDEVDRRENDAVWLATQNHSTLVTERSAVPFLPVNPEYSATRNQGRQKLARFNAREFATLIIDILSEAKRRQQGKSLSSPTDNLELSLRSQSDLDDQHDYDSVASDEDTDQEPLRSTGATRSNRARSMDSSDLSDGAVTLQEYLELKKALATSEAKVQQLMKVNSSLSDELRRLQREIHKLQAENLQLRQPPGPVPTPPLPSERAEHTPMAPGGSTHRRDRQAFSMYEPGSALKPFGGPPGDELTTRLQPFHSTELEDDAIYSVHVPAGLYRIRKGVSASAVPFTPSSPLLSCSQEGSRHTSKLSRHGSGADSDYENTQSGDPLLGLEGKRFLELGKEEDFHPELESLDGDLDPGLPSTEDVILKTEQVTKNIQELLRAAQEFKHDSFVPCSEKIHLAVTEMASLFPKRPALEPVRSSLRLLNASAYRLQSECRKTVPPEPGAPVDFQLLTQQVIQCAYDIAKAAKQLVTITTREKKQ
Number of Assigned Spectra, Mia-Paca 2 [1]: 0 | Number of Assigned Spectra, K562 Prep 1 [2]: 2 | Number of Assigned Spectra, K562 Prep 2 [2]: 0

B5: ARHGEF1 (protein, UniProt Q92888 1-912, looked up)
Rho guanine nucleotide …: MEDFARGAASPGPSRPGLVPVSIIGAEDEDFENELETNSEEQNSQFQSLEQVKRRPAHLMALLQHVALQFEPGPLLCCLHADMLGSLGPKEAKKAFLDFYHSFLEKTAVLRVPVPPNVAFELDRTRADLISEDVQRRFVQEVVQSQQVAVGRQLEDFRSKRLMGMTPWEQELAQLEAWVGRDRASYEARERHVAERLLMHLEEMQHTISTDEEKSAAVVNAIGLYMRHLGVRTKSGDKKSGRNFFRKKVMGNRRSDEPAKTKKGLSSILDAARWNRGEPQVPDFRHLKAEVDAEKPGATDRKGGVGMPSRDRNIGAPGQDTPGVSLHPLSLDSPDREPGADAPLELGDSSPQGPMSLESLAPPESTDEGAETESPEPGDEGEPGRSGLELEPEEPPGWRELVPPDTLHSLPKSQVKRQEVISELLVTEAAHVRMLRVLHDLFFQPMAECLFFPLEELQNIFPSLDELIEVHSLFLDRLMKRRQESGYLIEEIGDVLLARFDGAEGSWFQKISSRFCSRQSFALEQLKAKQRKDPRFCAFVQEAESRPRCRRLQLKDMIPTEMQRLTKYPLLLQSIGQNTEEPTEREKVELAAECCREILHHVNQAVRDMEDLLRLKDYQRRLDLSHLRQSSDPMLSEFKNLDITKKKLVHEGPLTWRVTKDKAVEVHVLLLDDLLLLLQRQDERLLLKSHSRTLTPTPDGKTMLRPVLRLTSAMTREVATDHKAFYVLFTWDQEAQIYELVAQTVSERKNWCALITETAGSLKVPAPASRPKPRPSPSSTREPLLSSSENGNGGRETSPADARTERILSDLLPFCRPGPEGQLAATALRKVLSLKQLLFPAEEDNGAGPPRDGDGVPGGGPLSPARTQEIQENLLSLEETMKQLEELEEEFCRLRPLLSQLGGNSVPQPGCT
Number of Assigned Spectra, Mia-Paca 2 [1]: 0 | Number of Assigned Spectra, K562 Prep 1 [2]: 4 | Number of Assigned Spectra, K562 Prep 2 [2]: 3

B6: ARHGEF2 (protein, UniProt Q92974 1-986, looked up)
Rho guanine nucleotide …: MSRIESLTRARIDRSRELASKTREKEKMKEAKDARYTNGHLFTTISVSGMTMCYACNKSITAKEALICPTCNVTIHNRCKDTLANCTKVKQKQQKAALLKNNTALQSVSLRSKTTIRERPSSAIYPSDSFRQSLLGSRRGRSSLSLAKSVSTTNIAGHFNDESPLGLRRILSQSTDSLNMRNRTLSVESLIDEAEVIYSELMSDFEMDEKDFAADSWSLAVDSSFLQQHKKEVMKQQDVIYELIQTELHHVRTLKIMTRLFRTGMLEELHLEPGVVQGLFPCVDELSDIHTRFLSQLLERRRQALCPGSTRNFVIHRLGDLLISQFSGPSAEQMCKTYSEFCSRHSKALKLYKELYARDKRFQQFIRKVTRPAVLKRHGVQECILLVTQRITKYPLLISRILQHSHGIEEERQDLTTALGLVKELLSNVDEGIYQLEKGARLQEIYNRMDPRAQTPVPGKGPFGREELLRRKLIHDGCLLWKTATGRFKDVLVLLMTDVLVFLQEKDQKYIFPTLDKPSVVSLQNLIVRDIANQEKGMFLISAAPPEMYEVHTASRDDRSTWIRVIQQSVRTCPSREDFPLIETEDEAYLRRIKMELQQKDRALVELLREKVGLFAEMTHFQAEEDGGSGMALPTLPRGLFRSESLESPRGERLLQDAIREVEGLKDLLVGPGVELLLTPREPALPLEPDSGGNTSPGVTANGEARTFNGSIELCRADSDSSQRDRNGNQLRSPQEEALQRLVNLYGLLHGLQAAVAQQDTLMEARFPEGPERREKLCRANSRDGEAGRAGAAPVAPEKQATELALLQRQHALLQEELRRCRRLGEERATEAGSLEARLRESEQARALLEREAEEARRQLAALGQTEPLPAEAPWARRPVDPRRRSLPAGDALYLSFNPPQPSRGTDRLDLPVTTRSVHRNFEDRERQELGSPEERLQDSSDPDTGSEEEGSSRLSPPHSPRDFTRMQDIPEETESRDGEAVASES
Number of Assigned Spectra, Mia-Paca 2 [1]: 2 | Number of Assigned Spectra, K562 Prep 1 [2]: 14 | Number of Assigned Spectra, K562 Prep 2 [2]: 7
